Assay results as given in PubChem BioAssay AID540276 (National Center for Advancing Translational Sciences (NCATS), 2011).
Among all 300,000 compounds or so, about 5,400 (1.8%) were called active. Inconclusive means that the source gave no clear call. Such entries were picked first, then a sample of the others. Calls come from the whole dose curve; tested in HEK293 cells. Where the call is inconclusive, the potency comes from a doubtful curve fit.

Assay: qHTS for inhibitors of binding or entry into cells for Marburg Virus
Settings: Marburg virus pseudotyped entry inhibition, cell reporter
[1] = activity change, negative = inhibition: at 37.8 µM (top of the series) unless noted
% is set by controls: 0 for no effect and ±100 for the full control effect; potency is the fitted concentration of half-maximal effect.

Compound: Cc1ccc(C)c(/C=N/NC(=S)NC(C)C)c1
- Potency [1]: inactive

Compound: CC(=O)c1sc2c(c1C)c(=O)n(-c1ccc(Cl)cc1)c(=O)n2Cc1ccc(Cl)cc1
- Potency [1]: inconclusive: 14.1 µM [inhibitor, single point]

Compound: CCOC(=O)N1CCC(n2c(SCC(=O)N3CCCC3)nc3ccccc3c2=O)CC1
- Potency [1]: inactive

Compound: CC(NC(=O)Cn1ncc2c3ccccc3n(Cc3ccc(F)cc3)c2c1=O)c1ccccc1 (configuration not stated)
- Potency [1]: inconclusive: 3.55 µM [inhibitor, partial curve, poor fit]

Compound: CCOC(=O)c1ccc(NC(=O)C2Cc3ccccc3CN2S(=O)(=O)c2ccc(Cl)cc2)cc1 (configuration not stated)
- Potency [1]: inconclusive: 15.8 µM [inhibitor, single point]

Compound: C[C@@H](N)C1CCC(C(=O)Nc2ccncc2)CC1 (some centres not stated)
- activity change, negative = inhibition [1]: inconclusive: 6.01% [inhibitor]
- activity change, negative = inhibition (at 37.8 µM (top of the series)): inactive: 9.99%

Compound: CC1CCN(CCCNC(=O)c2cn(C)c3ccc(S(=O)(=O)N4CCCC4)cc3c2=O)CC1
- Potency [1]: inactive

Compound: O=C(CCNC(=O)c1ccco1)Nc1ccc(C(F)(F)F)cc1
- Potency [1]: inactive

Compound: CCC1Oc2ccc(C)cc2N(CC(=O)N(Cc2ccncc2)Cc2ccco2)C1=O (configuration not stated)
- Potency [1]: inactive

Compound: CCOc1ccc(NS(=O)(=O)c2ccc(C(=O)N(C)CC(=O)Nc3ccc(C)cc3)cc2)cc1
- Potency [1]: inconclusive: 35.5 µM [inhibitor, single point]

Compound: NCC(O)(CS(=O)(=O)O)c1ccc(Cl)cc1 (configuration not stated)
- Potency [1]: inconclusive: 0.0398 µM [inhibitor, full curve, poor fit]

Compound: O=C(NCc1ccc(-c2nc3ccccc3s2)cc1)c1ccc(Br)o1
- Potency [1]: inconclusive: 0.501 µM [inhibitor, full curve, poor fit]

Compound: Cc1ccc(C(=O)Nc2ccccc2Oc2ccccc2)cc1[N+](=O)[O-]
- Potency [1]: inconclusive: 11.2 µM [inhibitor, single point]

Compound: COCC(=O)NCCc1nc(-c2ccccc2)cs1
- Potency [1]: inconclusive: 12.6 µM [activator, single point]

Compound: Clc1ccc(-c2csc3ncnc(NCCN4CCOCC4)c23)cc1
- Potency [1]: inconclusive: 22.4 µM [inhibitor, single point]

Compound: O=C(COC(=O)/C=C/c1cccc(C(F)(F)F)c1)NCCN1C(=O)CSC1=O
- Potency [1]: inconclusive: 0.794 µM [inhibitor, single point]

Compound: CCc1ccc(CN(C)C(=O)c2cc(COc3cccc(C(F)(F)F)c3)on2)nc1
- Potency [1]: inconclusive: 17.8 µM [inhibitor, single point]

Compound: CN(C(=O)CSc1nc2ccccc2o1)C1CCS(=O)(=O)C1 (configuration not stated)
- Potency [1]: inactive

Compound: O=C(CN1CCc2ccccc2C1)Nc1cc(S(=O)(=O)N2CCOCC2)ccc1N1CCCC1
- Potency [1]: inconclusive: 18.4 µM [inhibitor, single point]

Compound: C/C(=N\NC(=O)CNC(=O)c1cccs1)c1ccc(Cl)c(Cl)c1
- Potency [1]: inconclusive: 22.4 µM [inhibitor, single point]

Compound: CC(C)Oc1cccc(NC(=O)c2cccn(Cc3ccc4c(c3)OC(F)(F)O4)c2=O)c1
- Potency [1]: inconclusive: 11.6 µM [inhibitor, partial curve, poor fit]

Compound: CC[C@H](NC(=O)c1c(C)c(-c2ccccc2)nc2ccccc12)c1ccccc1
- Potency [1]: inconclusive: 14.1 µM [inhibitor, partial curve, poor fit]

Compound: COCCn1c(SCC(=O)Nc2ccc(F)c(Cl)c2)nc2c(oc3ccccc32)c1=O
- Potency [1]: inactive

Compound: O=[N+]([O-])c1ccc(Sc2nc3ccccc3o2)c([N+](=O)[O-])c1
- Potency [1]: active: 16.4 µM

Compound: O=C(CN(Cc1ccccc1)S(=O)(=O)c1ccccc1)N/N=C/c1ccc([N+](=O)[O-])cc1
- Potency [1]: inconclusive: 8.91 µM [inhibitor, partial curve, poor fit]

Compound: NC(=O)CS(=O)(=O)c1ccc(Cl)cc1
- Potency [1]: inactive

Compound: COc1ccc(CCNC(=O)Cn2nnc(-c3ccc(C(F)(F)F)cc3)n2)cc1OC
- Potency [1]: inactive

Compound: COc1ccc(C2(C)NC(=O)N(CC(=O)NCc3ccccc3F)C2=O)cc1 (configuration not stated)
- Potency [1]: inactive

Compound: COC(=O)CSc1nnc([C@H](Cc2ccccc2)NC(=O)OC(C)(C)C)o1
- Potency [1]: inactive

Compound: O=C(Cc1ccccc1)NCC(=O)OCc1ccc([N+](=O)[O-])cc1
- Potency [1]: inconclusive: 20 µM [activator, single point]

Compound: O=C(Nc1ccccc1Oc1ccccc1)c1cc([N+](=O)[O-])ccc1Cl
- Potency [1]: inconclusive: 11.2 µM [inhibitor, partial curve, poor fit]

Compound: Cc1ccccc1NC(=O)C(Cl)=C(Cl)Cl
- Potency [1]: inconclusive: 12.6 µM [inhibitor, partial curve, poor fit]

Compound: CCOC(=O)c1c(NC(=O)c2ccoc2C)sc(C(=O)N(C)C)c1C
- Potency [1]: inactive

Compound: O=C(CSc1nc2nn(-c3ccccc3)c(=O)c-2c2n1CCCCC2)c1ccc(O)c(O)c1
- Potency [1]: inconclusive: 11.2 µM [inhibitor, partial curve, poor fit]

Compound: CCOC(=O)c1ccc(NC(=O)Nc2ccc3c(c2)OCCO3)cc1
- Potency [1]: inactive

Compound: COc1cc2oc(=O)cc(CN3CCCCC3)c2cc1Cl
- Potency [1]: inconclusive: 14.1 µM [activator, partial curve, poor fit]

Compound: CC(=O)c1ccc(Nc2nc(-c3cccnc3)cs2)cc1
- Potency [1]: inconclusive: 6.31 µM [activator, partial curve, poor fit]

Compound: CC/C(=N/O)c1cnnc(SC)n1
- Potency [1]: inconclusive: 7.94 µM [activator, partial curve, poor fit]

Compound: O=C(Nc1ccccc1)Nc1nnc(-c2cccs2)s1
- Potency [1]: inconclusive: 35.5 µM [activator, single point]

Compound: Cc1ccc(CNc2ccc(CNc3ncn[nH]3)cc2)cc1
- Potency [1]: inconclusive: 0.651 µM [activator, single point]

Compound: N/C(Cc1nc(-c2ccc(F)cc2)cs1)=N\O
- Potency [1]: inconclusive: 14.1 µM [activator, single point]

Compound: COc1ccc(COC(=O)CNC(=O)C2CCCCC2)cc1F
- Potency [1]: inactive

Compound: Cc1ccnc(NC(=O)/C=C/c2cccs2)c1
- Potency [1]: inconclusive: 7.08 µM [inhibitor, partial curve, poor fit]

Compound: Cc1nn(C)c(C)c1CN(C)C(=O)c1cc2nc(-c3ccco3)cc(C(F)(F)F)n2n1
- Potency [1]: inactive

Compound: CCS(=O)(=O)c1ncc(N(Cc2ccco2)Cc2sccc2C)c(C(=O)Nc2cc(C)ccc2C)n1
- Potency [1]: inconclusive: 12.6 µM [inhibitor, single point]

Compound: CCOC(=O)c1[nH]c2ccccc2c1NC(=O)NC(C)C
- Potency [1]: inactive

Compound: COc1ccc(NC(=O)CC2C(=O)N(c3ccc(Cl)cc3)C(=S)N2NC(=O)c2cccc(F)c2)cc1 (configuration not stated)
- Potency [1]: inconclusive: 12.6 µM [activator, single point]

Compound: FC(F)(F)c1nc2ccccc2n2c(-c3ccc(Cl)cc3Cl)nnc12
- Potency [1]: inactive

Compound: Oc1ccc(N=Nc2nc(-c3ccccc3)c(-c3ccccc3)[nH]2)cc1
- Potency [1]: inconclusive: 10 µM [inhibitor, partial curve, poor fit]

Compound: COc1ccccc1-c1nc(SCC(=O)N(C)c2ccccc2)c2c(=O)n(C)c(=O)n(C)c2n1
- Potency [1]: inactive

Compound: O=C(CSCCc1ccccn1)Nc1ccccn1
- Potency [1]: inactive

Compound: FC(F)(F)c1cccc(CN2CCCCCC2)c1
- Potency [1]: inactive

Compound: CCOC(=O)C1(CCOC)CCN(C(=O)Cc2ccc3ccccc3c2)CC1
- Potency [1]: active: 10 µM

Compound: CC(=O)n1c2ccccc2c2c1c1ccccc1n2C
- Potency [1]: inactive

Compound: CC(=O)c1cccc(-n2c(CCC(=O)O)ccc2-c2cccs2)c1
- Potency [1]: inactive

Compound: Cc1ccc(NC(=S)N(CCCN2CCOCC2)Cc2ccccn2)cc1
- Potency [1]: inactive

Compound: CCn1c(/C=C/c2c(C)n(CC)c3ccccc23)nc2ccccc2c1=O
- Potency [1]: inactive

Compound: COc1ccc(OC)c(C2CC(=O)c3c([nH]c(C(=O)OCC4CCCCC4)c3C)C2)c1 (configuration not stated)
- Potency [1]: inconclusive: 5.62 µM [inhibitor, full curve, poor fit]

Compound: COC(=O)C[C@H]1c2ccccc2[C@@H]2C(=C[C@@H](C)[C@H]3C(=O)N(c4ccccc4)C(=O)[C@H]32)N1C(=O)OC
- Potency [1]: inactive

Compound: C#CCOC(=O)Nc1cccn(Cc2c(Cl)cccc2Cl)c1=O
- Potency [1]: inconclusive: 3.66 µM [inhibitor, partial curve]

Compound: CCOC(=O)N1CCN(C(=O)CCn2nc(-c3ccc(Cl)cc3)ccc2=O)CC1
- Potency [1]: inactive

Compound: CCOC(=O)c1[nH]c2ccc(OCC)cc2c1NC(=O)CN1CCN(c2ccccn2)CC1
- Potency [1]: inconclusive: 35.5 µM [inhibitor, single point]

Compound: COc1ccc(NC(=S)N2CCC(N(C)CC3CCCO3)CC2)cc1Cl (configuration not stated)
- Potency [1]: inconclusive: 4.47 µM [activator, partial curve, poor fit]

Compound: CCC1=C(C)C(C#N)C(=S)N=C1C (configuration not stated)
- Potency [1]: inconclusive: 3.16 µM [inhibitor, partial curve]

Compound: Cc1cccc(CCn2c(=O)c3ccccc3n(Cc3cccc(F)c3)c2=O)c1
- Potency [1]: inactive

Compound: CCCCn1c(N)c(N(CC)C(=O)c2cccs2)c(=O)[nH]c1=O
- Potency [1]: inactive

Compound: CC(C)N(C(=O)CC1ON(C)C(=O)N1c1ccc(Cl)cc1)C(C)C (configuration not stated)
- Potency [1]: inconclusive: 5.62 µM [inhibitor, single point]

Compound: O=C(N/N=C/c1ccc(Br)s1)c1cccc([N+](=O)[O-])c1
- Potency [1]: inconclusive: 7.08 µM [inhibitor, partial curve, poor fit]

Compound: CC1CCc2nc(NC(=O)COc3ccc(C(C)(C)C)cc3)sc2C1 (configuration not stated)
- Potency [1]: inconclusive: 35.5 µM [inhibitor, single point]

Compound: O=C(NCC(c1cccs1)N1CCOCC1)c1cn(-c2ccccc2)nc1-c1ccc(F)cc1 (configuration not stated)
- Potency [1]: inconclusive: 11.2 µM [inhibitor, partial curve, poor fit]

Compound: CC(C)(C)NC(=O)c1ccc(COc2ccc(Cl)cc2Cl)o1
- Potency [1]: inconclusive: 20 µM [inhibitor, partial curve, poor fit]
